Results are given in words; binding and its absence hold for the method and conditions named.

The chains behind the UniProt entries cited, without tags or fusion partners. Residues count along the entry.
UniProt P18848, residues 1-275: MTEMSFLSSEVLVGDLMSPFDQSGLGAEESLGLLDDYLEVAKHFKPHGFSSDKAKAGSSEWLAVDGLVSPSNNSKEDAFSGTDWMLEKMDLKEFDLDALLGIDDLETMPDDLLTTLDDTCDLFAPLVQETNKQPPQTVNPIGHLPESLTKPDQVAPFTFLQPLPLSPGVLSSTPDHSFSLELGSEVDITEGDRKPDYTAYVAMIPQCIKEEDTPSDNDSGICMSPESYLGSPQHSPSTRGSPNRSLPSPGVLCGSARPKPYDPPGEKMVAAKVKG

This experiment deals with ATF4-275 (isolated transactivation domain of activating transcription factor 4) (human) (UniProt P18848). Briefly: SEC-MALS; ATF4-275 at 3, 6 and 9 mg/ml (~100, 200, 300 uM); Shodex 803 column; 20 mM MES pH 6.5, 50 mM NaCl; 20 °C; both purified.

As for “ATF4-275 (isolated transactivation domain of activating transcription factor 4) (from UniProt P18848 1-275) (domain or fragment)”, the binding result is “no binding (tested: 3, 6 and 9 mg/ml (~100, 200, 300 uM))”.

These data come from PMC8881488, “Intricate coupling between the transactivation and basic-leucine zipper domains governs phosphorylation of transcription factor ATF4 by casein kinase 2” (The Journal of Biological Chemistry, 2022).
